According to paper PMC3492265:
No constants are given. Whether binding was seen depends on the method and setting. In cells and extracts the contact can be indirect. Some binding calls cover weakened binding; strength is not graded here.

Protein sequences, listed by entry. Tags and fused reporters are not part of them.
UniProt P11103: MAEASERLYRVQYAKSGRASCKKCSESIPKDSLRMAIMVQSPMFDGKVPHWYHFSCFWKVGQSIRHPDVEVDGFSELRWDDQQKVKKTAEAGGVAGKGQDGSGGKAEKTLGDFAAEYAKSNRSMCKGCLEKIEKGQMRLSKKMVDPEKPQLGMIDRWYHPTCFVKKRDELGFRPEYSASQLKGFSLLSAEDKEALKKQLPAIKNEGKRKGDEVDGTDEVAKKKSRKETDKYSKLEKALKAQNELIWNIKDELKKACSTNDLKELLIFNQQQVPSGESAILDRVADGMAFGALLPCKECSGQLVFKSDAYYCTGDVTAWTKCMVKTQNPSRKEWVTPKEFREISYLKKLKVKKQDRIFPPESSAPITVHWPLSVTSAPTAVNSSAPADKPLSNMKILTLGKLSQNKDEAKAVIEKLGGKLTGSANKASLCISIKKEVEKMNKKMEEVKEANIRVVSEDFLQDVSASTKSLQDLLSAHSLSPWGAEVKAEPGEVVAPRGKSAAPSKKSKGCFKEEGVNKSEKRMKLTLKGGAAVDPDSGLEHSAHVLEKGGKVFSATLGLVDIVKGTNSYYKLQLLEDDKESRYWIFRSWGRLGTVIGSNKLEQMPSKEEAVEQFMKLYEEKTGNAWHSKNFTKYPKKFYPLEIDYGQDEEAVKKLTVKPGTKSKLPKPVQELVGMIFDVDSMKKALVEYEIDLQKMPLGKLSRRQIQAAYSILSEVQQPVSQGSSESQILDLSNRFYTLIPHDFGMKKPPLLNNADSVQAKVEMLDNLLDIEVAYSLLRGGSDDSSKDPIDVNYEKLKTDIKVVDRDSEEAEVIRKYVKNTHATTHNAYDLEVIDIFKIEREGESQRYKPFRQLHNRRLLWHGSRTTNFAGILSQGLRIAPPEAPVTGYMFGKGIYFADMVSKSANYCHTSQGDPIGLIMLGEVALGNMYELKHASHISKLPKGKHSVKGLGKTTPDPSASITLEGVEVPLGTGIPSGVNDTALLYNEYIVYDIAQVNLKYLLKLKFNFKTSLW
UniProt P23475: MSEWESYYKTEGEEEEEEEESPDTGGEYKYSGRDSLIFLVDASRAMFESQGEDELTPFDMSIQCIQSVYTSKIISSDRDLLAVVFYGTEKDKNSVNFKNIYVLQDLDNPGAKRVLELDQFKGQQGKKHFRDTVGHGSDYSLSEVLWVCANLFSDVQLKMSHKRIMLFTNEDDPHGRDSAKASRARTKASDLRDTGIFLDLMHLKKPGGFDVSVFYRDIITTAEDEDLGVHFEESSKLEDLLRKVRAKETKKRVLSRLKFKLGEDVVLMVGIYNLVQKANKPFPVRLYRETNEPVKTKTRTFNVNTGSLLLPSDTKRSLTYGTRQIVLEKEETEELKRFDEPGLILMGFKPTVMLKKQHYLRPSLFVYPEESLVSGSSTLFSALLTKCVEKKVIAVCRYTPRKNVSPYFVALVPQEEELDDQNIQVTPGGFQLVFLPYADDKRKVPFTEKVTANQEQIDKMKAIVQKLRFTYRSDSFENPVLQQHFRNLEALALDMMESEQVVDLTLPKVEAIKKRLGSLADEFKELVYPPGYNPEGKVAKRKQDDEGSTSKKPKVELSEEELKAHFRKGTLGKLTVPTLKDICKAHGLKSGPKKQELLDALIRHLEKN

How the values were obtained:
[1] = molecular target: Poly(ADP-ribose) polymerase-1 (mouse (endogenous in mouse embryonic fibroblasts)) (UniProt P11103); experiment: co-IP; anti-PARP-1 rabbit polyclonal antibody with 1 mg cell extract, protein A-sepharose/protein G-agarose beads, 4°C, lysis buffer 50 mM Tris-HCl pH 7.5, 150 mM NaCl, 0.2% Triton X-100, 0.3% NP-40; blot for Ku70; wild-type and pol β null cells, untreated or treated with 10 mM MMS and left to repair
[2] = molecular target: Ku70 (mouse (endogenous in mouse embryonic fibroblasts)) (UniProt P23475); experiment: co-IP; anti-Ku70 antibody with cell extracts; blot for PARP-1; wild-type and pol β null cells, untreated or treated with 10 mM MMS and left to repair

binding [1] | binding [2] | Substance
binds | – | Ku70 (from UniProt P23475 1-608)
– | binds | Poly(ADP-ribose) polymerase-1 (from UniProt P11103 1-1013)
